Laboratory results as given in publication PMC8449268, “Activity of the yeast vacuolar TRP channel TRPY1 is inhibited by Ca^2+–calmodulin binding” (The Journal of Biological Chemistry, 2021).
These are yes or no findings as the source states them, for the method shown. Where a sequence is shown, tags or fusion partners need not be part of it.

By UniProt entry, the sequences of proteins in these tests, tags left out. Where a name states a change or a piece, a line headed by the entry shows the natural chain unless it says otherwise.
UniProt P06787: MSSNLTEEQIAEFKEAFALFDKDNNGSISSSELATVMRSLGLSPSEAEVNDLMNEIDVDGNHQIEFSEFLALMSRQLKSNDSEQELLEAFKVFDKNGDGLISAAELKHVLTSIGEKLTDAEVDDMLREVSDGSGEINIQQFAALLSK

Biological target: T1, MBP-TRPY1-C (cytosolic C terminus of TRPY1 fused to maltose-binding protein) (S. cerevisiae) (UniProt Q12324)
T1 sequence: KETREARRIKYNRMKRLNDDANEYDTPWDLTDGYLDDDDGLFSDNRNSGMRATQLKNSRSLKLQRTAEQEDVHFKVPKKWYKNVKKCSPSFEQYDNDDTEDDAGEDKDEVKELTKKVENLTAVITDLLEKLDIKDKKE
Experiment: pull-down; MBP-fused TRPY1 fragments (12 ug) immobilised on amylose resin, incubated with 12 ug GST-Cmd1 or GST-Cmd1–6 with 2 mM Ca2+, 60 min, 4 °C; bound protein detected by anti-GST blot; both purified

binding: no binding
Substance: GST-Cmd1–6 (non-Ca2+-binding yeast calmodulin mutant fused to GST) (from UniProt P06787)
